Results deposited as PubChem BioAssay AID602196 (INSERM, 2012).
Test: 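Modifiers of cisplatin sensitivity in A549 cells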. Cell system: human A549 lung cancer cells. Reagents: siRNA pair against human genes. Timing: 48 h transfection before cisplatin; time from cisplatin to read-out not stated. Treatment: cisplatin at a dose killing half of control-siRNA cells; exact dose and duration not given. Measurement: 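Cisplatin cell death as a shift from the 50% death seen with control siRNA; siRNAs toxic or growth-blocking alone scored 0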. Scale: two-siRNA summed score (-2 to +2): higher = both siRNAs protect from cisplatin killing; -2 means both sensitise; mean protection from cisplatin (shift in death) and protection from cisplatin (shift in death), siRNA C and protection from cisplatin (shift in death), siRNA D: higher = protection from cisplatin killing. Active means: 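siRNAs harmful alone (LDH or WST-1) get 0; others get +1 for less and -1 for more cisplatin killing; genes are active when the two siRNAs give the same sign, summing to ±2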. Meaning of the calls: active = both siRNAs shift cisplatin killing the same way; inactive = no consistent shift, or siRNA harmful alone.
The deposit covers about 23,000 reagents; this is an unselected part. Of all reagents, 455 (2%) were called active. 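Active includes both protection and sensitisation; some change values fall well beyond the stated -50 to +50 range.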 Entries without a mark were called inactive. Not given: the amount of reagent.

gene | two-siRNA summed score (-2 to +2) | mean protection from cisplatin (shift in death) (%) | protection from cisplatin (shift in death), siRNA C (%) | protection from cisplatin (shift in death), siRNA D (%)
GADL1 | 0 | 3.9 | 9.1 | -1.3
TNNI3K | 0 | -1.6 | 10.4 | -13.6
ZNF469 | 0 | 11.3 | 8.4 | 14.1
LOC442248 | 1 | 26.1 | 17.5 | 34.7
WDR18 | -1 | -5.9 | 1.2 | -12.9
IFIH1 | 0 | 7 | 7.7 | 6.3
POLR3GL | 1 | 13.3 | 12.5 | 14.1
DIRAS3 | 0 | 4.7 | 9.3 | 0.2
SAMTOR | 0 | 2 | -1.6 | 5.6
DDR1 | 0 | -0.7 | -2.6 | 1.2
TLR9 | 0 | 10.3 | -3.1 | 23.7
CATSPER1 | 0 | 12.1 | 17.1 | 7.1
PHAF1 | 0 | 6.2 | 17.7 | -5.2
C19orf12 | 0 | -5.3 | -3.7 | -6.8
MMP8 | -1 | -5.2 | 0.8 | -11.2
SMIM14 | 0 | 1.7 | -4.6 | 8.1
NOL4L-DT | 0 | -1.3 | -8.9 | 6.3
GNG11 | 0 | -14.2 | -10.3 | -18.1
EGR2 | 0 | -5.9 | -4.5 | -7.2

6 entries from above, sorted by “two-siRNA summed score (-2 to +2)”, descending:
gene | two-siRNA summed score (-2 to +2) | mean protection from cisplatin (shift in death) (%) | protection from cisplatin (shift in death), siRNA C (%) | protection from cisplatin (shift in death), siRNA D (%)
POLR3GL | 1 | 13.3 | 12.5 | 14.1
IFIH1 | 0 | 7 | 7.7 | 6.3
DIRAS3 | 0 | 4.7 | 9.3 | 0.2
SAMTOR | 0 | 2 | -1.6 | 5.6
DDR1 | 0 | -0.7 | -2.6 | 1.2
TLR9 | 0 | 10.3 | -3.1 | 23.7

The results go on:
gene | two-siRNA summed score (-2 to +2) | mean protection from cisplatin (shift in death) (%) | protection from cisplatin (shift in death), siRNA C (%) | protection from cisplatin (shift in death), siRNA D (%)
DFFA | 1 | 8 | 15.3 | 0.6
ATP23 | 0 | 1.8 | 3.7 | -0.2
FYN | 1 | 4.5 | 16.1 | -7
EXD2 | -1 | -0.6 | 10.1 | -11.2
ECM1 | 1 | 12.6 | 8.8 | 16.4
EFTUD2 | 0 | 7.9 | 17.3 | -1.5
PTDSS1 | 0 | 3.3 | 8 | -1.3
SNCA | 0 | 1.2 | 11.6 | -9.2
IL17A | -1 | -16.6 | -11.7 | -21.5
LOC402527 | 0 | 3.3 | 5.3 | 1.3
SPRR4 | 1 | 14.8 | 10.8 | 18.9
LOC389469 | 1 | 12.2 | 6.7 | 17.7
LGALS14 | 0 | 10.8 | 4.9 | 16.8
KIAA1726 | 0 | 11.1 | 15.6 | 6.5
NRCAM | 0 | -11.2 | -18.7 | -3.6
SOCS5 | 0 | -0.9 | 6.7 | -8.4
LOC440470 | 0 | 27 | 22.2 | 31.9
SCN11A | -1 | -24.7 | -13.9 | -35.4
LOC441471 | 0 | 7.4 | 11.2 | 3.5
ATP6V1B1 | 0 | -0.5 | -3.9 | 3
